According to publication PMC10148881, “Recognition of an Ala-rich C-degron by the E3 ligase Pirh2” (Nature Communications, 2023):
These are yes or no findings as the source states them, for the method shown.

Chains of the proteins cited; added tags and fusions are not shown. Lines headed by an entry give the natural chain unless they say otherwise; changes in a name come on top.
UniProt Q96PM5: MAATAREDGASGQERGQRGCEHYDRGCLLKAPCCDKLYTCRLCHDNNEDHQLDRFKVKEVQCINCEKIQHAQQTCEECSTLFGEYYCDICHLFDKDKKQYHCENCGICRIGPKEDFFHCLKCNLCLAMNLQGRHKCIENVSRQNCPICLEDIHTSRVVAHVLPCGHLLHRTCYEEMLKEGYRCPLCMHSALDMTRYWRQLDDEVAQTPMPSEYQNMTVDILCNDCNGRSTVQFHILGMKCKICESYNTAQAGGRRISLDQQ

What was measured:
Test in all cases: condition: peptide 0.6–1.0 mM titrated into 180–220 μM protein; ITC; peptides (0.6–1.0 mM) titrated into the cell with 180–220 μM protein at 16 °C; 20 mM Tris-HCl pH 7.5, 150 mM NaCl, 10 μM Zn2+; one-site binding model; both purified
Pirh2 R41A (human) = Pirh2 R41A (human) (UniProt Q96PM5)
Pirh2 R109A (human) = Pirh2 R109A (human) (UniProt Q96PM5)
Pirh2 Y23A (human) = Pirh2 Y23A (human) (UniProt Q96PM5)

binding (Pirh2 R41A (human)): no binding
binding (Pirh2 R109A (human)): no binding
binding (Pirh2 Y23A (human)): no binding
Binder: YKTSAAAAAA [Ala6/C-degron peptide (sequence: …)]
